Measurements from PubChem BioAssay AID504648 (National Center for Advancing Translational Sciences (NCATS), 2011).
Hit rate of the full screen: of about 390,000 compounds, about 610 (0.16%) were called active. The shares of active, inactive and inconclusive entries below differ from those in the screen. Calls follow the shape of the dose curve; as a rule, active = well fitted inhibition curve with a large enough effect; inconclusive = small, poorly fitted or top-dose-only effect, or effect the other way, or another doubt; inactive = no such curve, though single readings can be large or run the other way. Potencies of inconclusive entries are doubtful fits and often do not repeat.

Experiment: Nrf2 qHTS screen for inhibitors: counterscreen for cytotoxicity
Details: A549 ARE-Fluc cells, CellTiter-Fluor viability, 18-24 h; activity change, negative = cytotoxicity: at 46 µM (top of the series)
Procedure, shortened: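 A549 ARE-Fluc cells in 5% FBS OPTI-MEM, 5000 cells/well, rested 2 h then exposed to compounds in concentration-response for 18-24 h at 37 °C. Viability by CellTiter-Fluor fluorescence (Ex 405/Em 525) after 30 min; luciferase luminescence (BugLite, 15 min, RT) read afterwards.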
% is scaled to controls: 0 for no effect and ±100 for the full control effect; potency is read from the fitted curve at half-maximal effect.

Row | Structure (SMILES) | Potency | activity change, negative = cytotoxicity
1 | CN(C)CCNC(=O)C1CCN(Cc2cc3ccccc3n2Cc2ccccc2)CC1 | inconclusive: 29.1 µM [falling, single point] | 
2 | CC1Cc2ccccc2N1C(=O)c1ccc(N2CCCC2)c([N+](=O)[O-])c1 (stereo not given) | inconclusive: 18.4 µM [falling, single point] | 
3 | C/C(=N\NC(=O)c1cc(-c2cccc([N+](=O)[O-])c2)n[nH]1)c1ccccc1O | inconclusive: 18.4 µM [falling, single point] | 
4 | CCOC(=O)N1CCN(CC(=O)Nc2ccc([N+](=O)[O-])cc2C(=O)Nc2ccccc2F)CC1 | inconclusive: 32.6 µM [activator, partial curve, poor fit] | 
5 | CC(=O)Nc1cc2ccc(OC(C)=O)cc2oc1=O | inconclusive: 18.4 µM [activator, single point] | 
6 | CCN(CCCNC(=O)c1nn(-c2ccc(OC)cc2)c(=O)c2c1c1ccccc1n2C)c1ccccc1 |  | inactive: -1.07%
7 | CCc1ccc(/C=C2\SC(=S)N(CCC(=O)NCCCN3CCOCC3)C2=O)cc1 | inconclusive: 23.1 µM [falling, partial curve, poor fit] | 
8 | CCOc1ccccc1CNCc1cccn1-c1nnc(N2CCN(c3ccccc3)CC2)s1 | inconclusive: 29.1 µM [falling, partial curve, poor fit] | 
9 | CC1(C)CC(=O)C2=C(C1)OC1=C(C(=O)CC(C)(C)C1)C2c1cc([N+](=O)[O-])cc([N+](=O)[O-])c1O | inconclusive: 18.4 µM [falling, single point] | 
10 | CN(CC(=O)NC(=O)NCc1ccccc1)CC(=O)Nc1ccc(Cl)c(C(F)(F)F)c1 | inconclusive: 20.6 µM [falling, single point] | 
11 | COc1cc(OC)cc(-c2c(C#Cc3ccsc3)c3cc(-c4cccc5[nH]cc(C=O)c45)ccc3n2C)c1 | inconclusive: 25.9 µM [falling, partial curve, poor fit] | 
12 | Cc1ccc(C(=O)Nc2nnc(C)s2)o1 |  | inactive: 0.594%
13 | Cc1ncc(CO)c(/C=N/Nc2ccc(C(F)(F)F)cn2)c1O | inconclusive: 16.4 µM [falling, partial curve, poor fit] | 
14 | Cc1c(C)n(Cc2ccc(Cl)cc2)c2ccc(C(=O)NCCN3CCOCC3)cc12 | inconclusive: 29.1 µM [falling, single point] | 
15 | Cc1cc(C)c(S(=O)(=O)Nc2ccc3c4c(cccc24)CC3)c(C)c1 | inconclusive: 4.61 µM [falling, partial curve, poor fit] | 
16 | CCCCSc1nnc(-c2c[nH]c3ccccc23)n1C |  | inactive: 0.607%
17 | COc1ccc(-c2ccc3c(c2)S(=O)(=O)c2cccc(C(=O)NCCOc4ccccc4)c2C3=O)cc1OC | inconclusive: 20.6 µM [falling, single point] | 
18 | CSc1cccc(NC(=O)c2cccc(N3CCCS3(=O)=O)c2)c1 |  | inactive: 0.285%
19 | Cc1ccccc1NCc1nc2ccccc2n1C | inconclusive: 2.06 µM [activator, partial curve, poor fit] | 
20 | CC(NC(=O)c1noc2c1CCCC2)c1ccccc1 (stereo not given) | inconclusive: 18.4 µM [activator, partial curve, poor fit] | 
21 | Cc1ccccc1NC(=O)CSc1nc2ccc(NC(=O)c3cccs3)cc2s1 | inconclusive: 16.4 µM [falling, single point] | 
22 | CCOCCCNC(=O)C1CCN(c2cc(C)nc3c(-c4ccc(OC)c(OC)c4)c(C)nn23)CC1 |  | inactive: -0.428%

Row | Structure (SMILES) | Potency | activity change, negative = cytotoxicity
23 | CCCn1c(=O)sc2cc(NC(=O)c3ccc(OC)c(Br)c3)ccc21 |  | inactive: -12.9%
24 | COc1ccc(OC)c(-c2nnc3n2N=C(c2ccc(OC)c(OC4CCCC4)c2)CS3)c1 |  | inactive: -18%
25 | O=C(Nc1nc(-c2ccncc2)cs1)C1c2ccccc2Oc2ccccc21 | inconclusive: 29.1 µM [falling, single point] | 
26 | COc1ccc(NC(=O)c2c(NCc3sccc3C)sc3c2CCCC3)c(OC)c1 | inconclusive: 29.1 µM [falling, single point] | 
27 | CCN(CC)P(=O)(Nc1ccc(C)cc1Br)c1ccc(N(C)C)cc1NC(=O)c1ccco1 (stereo not given) | inconclusive: 32.6 µM [falling, partial curve, poor fit] | 
28 | Cc1cccn2c(=O)c(/C=C(\C#N)C(=O)NCc3ccco3)c(N3CCC(C(N)=O)CC3)nc12 | inconclusive: 23.1 µM [falling, single point] | 
29 | Cc1ccc(-c2cc(-c3ccccc3)nc(N/N=C/c3cccnc3)n2)cc1 | inconclusive: 29.1 µM [falling, single point] | 
30 | CCN(CC)S(=O)(=O)c1cccc(C(=O)Nc2cc(C)nn2-c2ccccc2)c1 |  | inactive: -3.91%
31 | Cc1ccc(/C=C2\SC(=S)N(C3CCS(=O)(=O)C3)C2=O)o1 (stereo not given) | inconclusive: 25.9 µM [falling, single point] | 
32 | Cc1ccc(C(=O)NCC(=O)OCC(=O)N(CC(C)C)c2c(N)n(Cc3ccccc3)c(=O)[nH]c2=O)cc1C |  | inactive: 0.391%
33 | COc1cccc(/C=C2\SC(=S)N(CCC(=O)N3CCCCC3CCO)C2=O)c1 (stereo not given) | inconclusive: 29.1 µM [falling, single point] | 
34 | Fc1ccc(CNC(=S)NCc2cccc(Cl)c2)cc1 | inconclusive: 20.6 µM [activator, partial curve, poor fit] | 
35 | Cc1ccc(S(=O)(=O)c2nc(S(=O)(=O)c3ccc(C)cc3)c(N3CCN(CCO)CC3)s2)cc1 | inconclusive: 32.6 µM [falling, partial curve, poor fit] | 
36 | CC1(C)CC(=O)c2cc(OCC(=O)NCCCN3CCN(c4ccc(F)cc4)CC3)ccc2O1 | inconclusive: 16.4 µM [falling, single point] | 
37 | O=c1cc(-c2cccc(Br)c2)nc(-c2ccccc2F)o1 | inconclusive: 29.1 µM [falling, single point] | 
38 | CCN1C(=O)/C(=C2/C=Cc3ccccc3N2CC)SC1=S | inconclusive: 25.9 µM [falling, partial curve] | 
39 | O=C(Nc1nc2c(s1)CCCCCC2)Nc1ccc(F)cc1F |  | inactive: 0.366%
40 | CCC(C)Sc1cccc(-c2nc3cc(C)ccn3c2NC2CCCCC2)c1 (stereo not given) | inconclusive: 32.6 µM [falling, partial curve, poor fit] | 
41 | NC(=O)c1cc([N+](=O)[O-])ccc1N1CCCCC1 | inconclusive: 29.1 µM [falling, partial curve, poor fit] | 
42 | O=C(Nc1nnc(S(=O)(=O)N2CCCc3ccccc32)s1)c1ccccc1Cl |  | inactive: 8.49%
43 | O=C(/C=C/c1cccc(C(F)(F)F)c1)Nc1cccc(C(F)(F)F)c1 | inconclusive: 18.4 µM [falling, partial curve, poor fit] | 
44 | O=[N+]([O-])c1ccc(S(=O)(=O)N2CCN(Cc3c[nH]c4ccccc34)CC2)cc1 | inconclusive: 6.51 µM [activator, partial curve, poor fit] | 

Row | Structure (SMILES) | Potency | activity change, negative = cytotoxicity
45 | COc1ccc(-n2c(SCc3ccccn3)nc3c(c2=O)SCC3)cc1OC |  | inactive: 1.18%
46 | CCC(Cc1ccccc1)NC(=O)CN1C(=O)COc2ccc(S(=O)(=O)N3CCCCCC3)cc21 (stereo not given) |  | inactive: 13.1%
47 | Cc1ccc(NC(=O)CC(=O)c2ccc([N+](=O)[O-])cc2)cc1S(=O)(=O)Nc1cccc(Cl)c1 | inconclusive: 23.1 µM [falling, partial curve, poor fit] | 
48 | CCc1ccc(N2CC(C(=O)Nc3cccc(S(=O)(=O)N4CCCC4)c3)CC2=O)cc1 (stereo not given) |  | inactive: -1.48%
49 | O=C1c2ccsc2SCCN1Cc1c(Cl)cccc1Cl | inconclusive: 25.9 µM [falling, single point] | 
50 | Clc1ccc(CNc2ccc(CNc3ncn[nH]3)cc2)c(Cl)c1 |  | inactive: 2.08%
51 | O=C1N[C@H](Cc2ccccc2)COC(=O)[C@H](Cc2ccc(F)cc2)CC/C=C/C[C@H]1CC(=O)N(CCO)Cc1ccccc1 |  | inactive: -13.6%
52 | CCN1C(=O)/C(=C2/C=CC=CN2C)OC1=S | inconclusive: 18.4 µM [falling, single point] | 
53 | Cc1ccc(C(O)(c2ccccc2)c2ccccc2C(C)N(C)C)c(C)c1 (stereo not given) | inconclusive: 25.9 µM [falling, single point] | 
54 | Cc1ccc(Cn2cc(C(=O)c3ccc(F)cc3)c(=O)c3cc4c(cc32)OCCO4)cc1 | inconclusive: 29.1 µM [falling, single point] | 
55 | COc1cccc(OCc2cc(C(=O)NCc3ccc4c(c3)OCO4)no2)c1 | inconclusive: 20.6 µM [activator, partial curve, poor fit] | 
56 | S=C(NCc1ccccc1Cl)Nc1ccccc1Cl | inconclusive: 32.6 µM [activator, partial curve, poor fit] | 
57 | Cc1ccccc1Nc1sc(C(=O)c2ccccc2)c(N)c1C(=O)NCc1ccc(Cl)cc1 | inconclusive: 16.4 µM [falling, single point] | 
58 | Cc1ccc(C2=C(O)C(=O)C(c3ccc(C)cc3)=C(O)C2=O)cc1 | inconclusive: 7.31 µM [falling, partial curve, poor fit] | 
59 | O=C(CSc1nc2ccccc2s1)NCC1CCCO1 (stereo not given) |  | inactive: 7.3%
60 | CSc1ccccc1C(=O)N1CCN(c2cccc(Cl)c2)CC1 | inconclusive: 9.2 µM [falling, partial curve] | 
61 | COc1cccc(-n2c(-c3ccc(Cl)cc3)cc3c2CC(C)(C)CC3=O)c1 |  | inactive: -20.5%
62 | Fc1ccc(/C=C\c2nccc3c2[nH]c2ccccc23)cc1 |  | inactive: -11.9%
63 | Cc1ccc(-c2nnc(SCC(=O)NC3CCCC3)nc2-c2ccc(C)cc2)cc1 | inconclusive: 29.1 µM [falling, single point] | 
64 | CCOc1ccccc1NC(=O)c1cccc(N2C(=O)CCC2=O)c1 |  | inactive: -0.734%
65 | N#C/C(=C(/O)c1ccco1)c1nc2ccccc2s1 | inconclusive: 35.5 µM [falling, single point] | 

As entered above.
Entry for CCN1C(=O)/C(=C2/C=CC=CN2C)OC1=S under Potency: inconclusive: 18.4 µM [falling, single point]
Entry for Clc1ccc(CNc2ccc(CNc3ncn[nH]3)cc2)c(Cl)c1 under activity change, negative = cytotoxicity: inactive: 2.08%

Record cards (already shown):
`N#C/C(=C(/O)c1ccco1)c1nc2ccccc2s1` reads Potency: inconclusive: 35.5 µM [falling, single point]
`CCOC(=O)N1CCN(CC(=O)Nc2ccc([N+](=O)[O-])cc2C(=O)Nc2ccccc2F)CC1` reads Potency: inconclusive: 32.6 µM [activator, partial curve, poor fit]
